Assay results: PMC7955084
Results are given in words; binding and its absence hold for the method and conditions named.

Assays:
[1] = molecular target: human MCM10 internal domain (hMCM10-ID), wild type, residues 236-435 (human) (UniProt Q7L590); assay: SEC; analytical size-exclusion chromatography, Superdex 75 Increase 10/300 GL; 200 µL at 5 mg ml^−1 injected; 20 mM Tris-HCl pH 7.4, 500 mM NaCl, 5 mM β-mercaptoethanol; 0.4 mL min^−1; 4 °C; calibrated with molecular weight standards; both purified
[2] = molecular target: human MCM10 internal domain lacking the N-terminal 27 residues (ΔN27 hMCM10-ID), residues 263-435 (human) (UniProt Q7L590); assay: as above

B1: human MCM10 internal domain (hMCM10-ID), wild type, residues 236-435 (domain or fragment, UniProt Q7L590-2 236-435)
chain: GPSSGETTQPICVEAFSGLRLRRPRVSSTEMNKKMTGRKLIRLSQIKEKMAREKLEEIDWVTFGVILKKVTPQSVNSGKTFSIWKLNDLRDLTQCVSLFLFGEVHKALWKTEQGTVVGILNANPMKPKDGSEEVCLSIDHPQKVLIMGEALDLGTCKAKKKNGEPCTQTVNLRDCEYCQYHVQAQYKKLSAKRADLQSTFSG
binding [1]: no binding (tested: 5 mg ml^−1)

B2: human MCM10 internal domain lacking the N-terminal 27 residues (ΔN27 hMCM10-ID), residues 263-435 (domain or fragment, UniProt Q7L590-2 263-435)
chain: GPEMNKKMTGRKLIRLSQIKEKMAREKLEEIDWVTFGVILKKVTPQSVNSGKTFSIWKLNDLRDLTQCVSLFLFGEVHKALWKTEQGTVVGILNANPMKPKDGSEEVCLSIDHPQKVLIMGEALDLGTCKAKKKNGEPCTQTVNLRDCEYCQYHVQAQYKKLSAKRADLQSTFSG
binding [2]: no binding (tested: 5 mg ml^−1)
